System: HMG-CoA red.
Experiment: HMG-CoA red. activity "ex vivo" in liver microsomes after chronic intraperitoneal administration to rats
Conditions: inhibition of HMG-CoA red. activity, 50 mg/kg for 6 days, Control 0
Description: The inhibitory activity of the products according to the present invention was determined by the method of Kuroda et al. (Biochemica et Biophysica Acta, vol. 486, pp. 70-81 (1977)), which is a modification of the method of Shapiro et al. (Analytical Biochemistry, vol. 31, pp. 383-390 (1969)). […] The doses administered were 50 mg/kg for 6 days; six rats were used in each series; they are sacrificed without anaesthesia and the liver microsomes are isolated for the assay, which is performed according to the above-mentioned protocol.

CC(C)OC(=O)C(C)(C)Oc1ccc(C(=O)c2ccc(Cl)cc2)cc1 [Fenofibrate, isopropyl 4-(4-chlorobenzoyl)phenoxyisobutyrate, reference compound]
% inhibition: 75%
